Library screen at single concentrations

Amino acid sequences for entries named in this document (tags omitted). Residues count along the entry.
UniProt Q8IDJ8, 1-583: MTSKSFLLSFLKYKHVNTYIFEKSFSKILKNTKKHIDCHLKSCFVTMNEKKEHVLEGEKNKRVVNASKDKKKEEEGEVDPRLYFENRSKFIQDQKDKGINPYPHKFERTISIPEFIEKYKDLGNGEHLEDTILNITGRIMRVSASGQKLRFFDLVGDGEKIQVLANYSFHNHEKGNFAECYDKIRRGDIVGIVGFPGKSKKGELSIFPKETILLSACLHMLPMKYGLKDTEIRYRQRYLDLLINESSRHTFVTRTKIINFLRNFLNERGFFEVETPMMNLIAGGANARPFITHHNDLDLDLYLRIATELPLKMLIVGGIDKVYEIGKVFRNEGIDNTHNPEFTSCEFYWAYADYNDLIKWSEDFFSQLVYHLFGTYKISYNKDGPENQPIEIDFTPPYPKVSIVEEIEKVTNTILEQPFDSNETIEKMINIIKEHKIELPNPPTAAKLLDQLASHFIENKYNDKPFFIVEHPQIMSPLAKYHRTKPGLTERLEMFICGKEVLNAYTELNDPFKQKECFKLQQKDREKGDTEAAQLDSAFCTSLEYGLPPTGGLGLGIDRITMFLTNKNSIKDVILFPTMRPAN
UniProt A4I591, 1-473: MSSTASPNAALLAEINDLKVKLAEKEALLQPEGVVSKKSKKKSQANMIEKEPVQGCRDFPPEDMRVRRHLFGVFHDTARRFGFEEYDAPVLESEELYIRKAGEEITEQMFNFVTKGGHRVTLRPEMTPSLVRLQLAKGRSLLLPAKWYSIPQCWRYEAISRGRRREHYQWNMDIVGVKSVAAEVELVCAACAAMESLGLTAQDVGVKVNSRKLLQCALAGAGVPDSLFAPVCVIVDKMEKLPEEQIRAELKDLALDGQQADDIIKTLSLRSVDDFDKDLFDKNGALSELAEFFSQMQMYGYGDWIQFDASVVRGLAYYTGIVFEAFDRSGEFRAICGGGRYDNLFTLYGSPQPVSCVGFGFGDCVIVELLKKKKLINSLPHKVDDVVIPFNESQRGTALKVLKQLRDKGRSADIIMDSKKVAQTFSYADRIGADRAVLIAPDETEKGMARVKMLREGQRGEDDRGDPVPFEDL

T. brucei: 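Whole-parasite assay of Trypanosoma brucei over 72 hours; the read-out is not stated. Concentration: 30 µM. Direction is inferred from retests: higher values go with stronger inhibition. Values scatter widely below zero; nearly all retest evidence comes from the higher of the two concentrations used. Of about 64,000 compounds tested this way, about 940 (1.5%) reached 50% or more in at least one test.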
PfKRS1: 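Lysine-tRNA ligase, Plasmodium falciparum 3D7 (UniProt Q8IDJ8). Enzyme assay of the cytosolic lysyl-tRNA synthetase in 384-well plates, read by luminescence. Compounds at 30 µM. Higher reads as stronger inhibition, judged from the few compounds that gave an IC50. About 69,000 compounds were tested under these conditions; 0.071% (about 49) showed 50% or more at least once.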
LiHisRS: 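Enzyme assay of histidyl-tRNA synthetase; the read-out is not stated. Target: Histidine-tRNA ligase, Leishmania infantum (UniProt A4I591). Tested at 30 µM. Higher reads as stronger inhibition (inferred: compounds with an IC50 in retests scored well above the rest). The assay is labelled LdHisRS but filed under L. infantum. Of about 69,000 compounds tested this way, about 410 (0.6%) reached 50% or more in at least one test.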
Toxoplasma: 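Assay of Toxoplasma gondii numbers, read through their beta-galactosidase reporter with a colour substrate. Compounds at 10 µM. The record gives no direction; the compounds picked for IC50 retests had high values, so higher reads as fewer parasites. Of about 67,000 compounds tested this way, about 260 (0.38%) reached 50% or more in at least one test.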

Each number is a percent effect as filed. The controls that fix the scale are not given in the record; negative values are as filed. This is an unselected part of the compounds tested. A dash means the value is not listed here; it may have been measured.

| structure | T. brucei | PfKRS1 | LiHisRS | Toxoplasma |
|---|---|---|---|---|
| `CC(CC(=O)N1CCCN(Cc2cscn2)CC1)n1cccc1` (stereo not drawn) | -4.737% | 6.481% | 20.65% | -3.235% |
| `Cn1ncc(NCc2cccc(OCC(F)(F)F)c2)c(Cl)c1=O` | -8.05% | -0.5164% | 5.172% | -3.702% |
| `NC(=O)CNC1(c2ccc(Cl)cc2)CCCC1` | -3.538% | 7.27% | 25% | -12.23% |
| `CC(C)(C#N)c1ccccc1CN(CCO)Cc1ccsc1` | -15.86% | 3.929% | 13.16% | 7.56% |
| `CCCNC(=O)CCNC(=O)N1CCC(=Cc2ccccc2)CC1` | 17.57% | -1.782% | 15% | 0.2257% |
| `O=C(NCc1nccn1CCc1ccccc1)NCC1(O)CCC1` | -8.596% | -0.4914% | 17.86% | 4.141% |
| `CC(C)NC(=O)CN(C)C1CCN(c2cnc3ccccc3n2)CC1` | 27.86% | -2.548% | 9.677% | -8.465% |
| `CCN(C(=O)NCCc1ccccc1Cl)C(C)CS(C)(=O)=O` (stereo not drawn) | -17.75% | 0.4721% | -4.167% | -2.626% |
| `CC(C)(C)CC(=O)NCC(=O)NCC(O)c1ccc2ccccc2c1` (stereo not drawn) | 8.484% | 2.953% | 13.7% | -6.132% |
| `Cc1nn(C)cc1-c1cc(C(=O)NCC(C)(C)c2ccc(F)cc2)n[nH]1` | 41.64% | 0.5695% | 18.71% | 11.3% |
| `CC(C)c1nccc(CN(C)Cc2cccc(-n3cccn3)c2)n1` | -21.17% | 3.151% | 22.35% | -4.754% |
| `O=C(CC(F)(F)F)N1C[C@H]2CCN[C@H]2C1` | - | 2.292% | 13.46% | - |
| `Cn1cc(-c2cc(C(=O)N3CCOCC3)c3ccc(F)cc3n2)cn1` | -4.499% | -9.244% | -5% | -26.53% |
| `CCc1cc(=O)[nH]c2nnc(SCC(=O)NC)n12` | -18.51% | -3.763% | 4.959% | -3.665% |
| `O=C(NCc1cccc(F)c1)c1cccc(C(=O)N2CCCC2)n1` | -26.36% | 4.083% | 11.29% | -0.903% |
| `CCCN1CCCC2(CCN(c3nc(C)nc4ccsc34)C2)C1=O` (stereo not drawn) | -12.42% | 7.802% | 4.167% | 5.479% |
| `Cc1nc(C)n(CC2CCCN(CC(=O)Nc3nncs3)C2)n1` (stereo not drawn) | -29.77% | 4.62% | -12% | -10.16% |
| `CC(C)C(=O)N1CCCC(c2ncncc2-c2ccncc2)C1` (stereo not drawn) | -6.005% | 0.2979% | 6.569% | 2.496% |
| `CCc1nc(CN2CCOC(CN(CC)c3cccnn3)C2)cs1` (stereo not drawn) | 15.94% | 15.83% | 8.264% | 1.969% |
| `[H][C@]12CC[C@@]3(N=C(CC)N(CC)C3=O)[C@@]1([H])CN(S(=O)(=O)CC)C2` | -57.08% | - | - | -4.628% |
| `COCCNC(=O)CN1CCN(c2nc(C)cs2)C(C)C1` (stereo not drawn) | 14.17% | -1.868% | 9.231% | 7.324% |
| `CNC(=O)[C@@H]1C[C@@H](NC(=O)CCCc2cccs2)CN1C1CCOCC1` | 7.114% | 5.45% | 4.167% | 9.322% |
| `CC(=O)c1cc(CC(=O)N2CCN(CCOc3ccccc3)CC2)cs1` | 12.49% | 2.756% | 20.59% | 5.699% |
| `COc1ncccc1CNC(=O)C1=NN(c2ccccc2)C(=O)CN1` | -11.39% | 3.37% | 14.75% | 1.681% |
| `CCc1c(C(=O)O)nnn1-c1ccc(C)cc1C` | -52.29% | 5.004% | 13.04% | - |
| `Cc1nccnc1N1C[C@H](NC(=O)CNS(C)(=O)=O)[C@@H](C2CC2)C1` | -5.635% | 0.4693% | 16.44% | 17.9% |
| `Cc1ccc(CN2CCN(c3cc(NCCO)ncn3)CC2CCO)o1` (stereo not drawn) | -20.86% | 4.245% | 6.579% | -3.092% |
| `CCOC(=O)N1CCN(C(=O)Cc2c(C)nc(C)[nH]c2=O)CC1` | -7.988% | 5.633% | 14.29% | 1.654% |
| `CCN(CC1CCCO1)C(=O)Nc1ccc(OC)c(C)c1` (stereo not drawn) | -12.78% | 2.526% | 8.929% | -6.814% |
| `CN(Cc1ccnc2ccccc12)C1CCS(=O)(=O)C1.O=C(O)CC(O)(CC(=O)O)C(=O)O` (stereo not drawn) | - | - | - | 14.53% |
| `CCc1nc(CN2CCCN(C(=O)COC(C)C)CC2)cs1` | 6.818% | 3.066% | 18.87% | -2.581% |
| `CCOC(=O)N1CCN(C(=O)c2ccc3ccn(C)c3c2)CC1` | -7.388% | 0.5132% | 7.619% | 2.39% |
| `O=C(C1CCC1)N1CCc2onc(Cn3cccn3)c2C1` | 12.4% | -5.12% | 16.36% | -1.367% |
| `Fc1ccccc1CC1CCN(Cc2cscn2)CC1` | -2.509% | 0.3165% | 16.44% | 24.25% |
| `CS(=O)(=O)N1CCCC12CCCN(C(=O)c1ccc3c(c1)OCO3)C2` (stereo not drawn) | -51.83% | 5.534% | 19.74% | -4.099% |
| `Cc1cccc(CNCC2COC3(CCCC3)O2)c1C` (stereo not drawn) | -15.5% | -5.765% | -5.051% | -8.522% |
| `Cc1nc(-c2cccc(C(=O)N(C)C)c2)cs1` | -1.899% | 6.897% | 17.24% | 2.821% |
| `CCOC(C)c1nc(Cn2cc(C)cn2)cs1` (stereo not drawn) | -57.73% | 0.4929% | 3.333% | 4.289% |
| `Fc1ccc(CN2CCCC(c3nnc(-c4cnccn4)o3)C2)cc1F` (stereo not drawn) | 2.733% | 6.637% | 22.22% | 29.4% |
| `Cc1nccn1CCCN1CCC(c2nccn2CC2CCC2)CC1` | -8.75% | -0.02219% | 31.76% | 4.584% |
| `CC(C)N(C)Cc1cc(=O)n2c(n1)CN(C(=O)c1cnccn1)CCC2` | -43.54% | 2.299% | 5.66% | 19.27% |
| `Cc1cccc(CN2CC3(CCN(C(N)=O)CC3)OCC2=O)n1` | -18.54% | 0.7871% | 2.778% | -3.936% |
| `O=C1NC(C(=O)NCc2cccnc2Oc2ccc(F)c(F)c2)CO1` (stereo not drawn) | -37.47% | -1.365% | 18.07% | -23.96% |
| `Cn1ncc2c(=O)[nH]c(N3CCN(C(=O)c4ccsc4)CC3)nc21` | -37.18% | -3.709% | -4.762% | -4.078% |
| `[H][C@@]12CCN(C(C)=O)C[C@]1(C(=O)NCc1ccco1)CCO2` | 25.64% | - | - | 2.671% |
| `CCOc1ncccc1CNC(=O)N1CCCC1c1ccncc1` (stereo not drawn) | -13.44% | 10.61% | 10.68% | -0.6608% |
| `COCC(=O)NC[C@@]1(COc2cnccn2)C[C@@H](O)[C@@H](O)C1.Cl` | -15.7% | - | - | 0.6693% |
| `CC(=O)Nc1nc(C(=O)NC(C)c2ccc3c(c2)OCCO3)cs1` (stereo not drawn) | -1.049% | 5.887% | 21.33% | -1.477% |
| `CNC(=O)C(C)CN(C)C(=O)Nc1ccc(F)c(-n2cccc2)c1` (stereo not drawn) | -28.57% | -0.6086% | 2.74% | -0.0757% |
| `CN1CCN(C(=O)c2cc3sccc3n2Cc2ccc(Cl)cc2)CC1` | 99.49% | 5.004% | 7.692% | -23.76% |

The first 6 entries again:

| structure | T. brucei | PfKRS1 | LiHisRS | Toxoplasma |
|---|---|---|---|---|
| `CC(CC(=O)N1CCCN(Cc2cscn2)CC1)n1cccc1` (stereo not drawn) | -4.737% | 6.481% | 20.65% | -3.235% |
| `Cn1ncc(NCc2cccc(OCC(F)(F)F)c2)c(Cl)c1=O` | -8.05% | -0.5164% | 5.172% | -3.702% |
| `NC(=O)CNC1(c2ccc(Cl)cc2)CCCC1` | -3.538% | 7.27% | 25% | -12.23% |
| `CC(C)(C#N)c1ccccc1CN(CCO)Cc1ccsc1` | -15.86% | 3.929% | 13.16% | 7.56% |
| `CCCNC(=O)CCNC(=O)N1CCC(=Cc2ccccc2)CC1` | 17.57% | -1.782% | 15% | 0.2257% |
| `O=C(NCc1nccn1CCc1ccccc1)NCC1(O)CCC1` | -8.596% | -0.4914% | 17.86% | 4.141% |

Data taken from ChEMBL document CHEMBL3988442, “University of Dundee, Small-Polar-MMV Screening Library” (2021).